Results: PMC7016952, “Characterization of the Menin-MLL Interaction as Therapeutic Cancer Target” (Cancers, 2020)
No constants are given. Whether binding was seen depends on the method and setting. Some entries that bind do so weakly or less than the wild type. Tags and fused reporters may be left off the sequences shown.

Protein sequences, listed by entry. Tags and fused reporters are not part of them. Lines headed by an entry give the natural chain unless they say otherwise; changes in a name come on top.
UniProt Q03164: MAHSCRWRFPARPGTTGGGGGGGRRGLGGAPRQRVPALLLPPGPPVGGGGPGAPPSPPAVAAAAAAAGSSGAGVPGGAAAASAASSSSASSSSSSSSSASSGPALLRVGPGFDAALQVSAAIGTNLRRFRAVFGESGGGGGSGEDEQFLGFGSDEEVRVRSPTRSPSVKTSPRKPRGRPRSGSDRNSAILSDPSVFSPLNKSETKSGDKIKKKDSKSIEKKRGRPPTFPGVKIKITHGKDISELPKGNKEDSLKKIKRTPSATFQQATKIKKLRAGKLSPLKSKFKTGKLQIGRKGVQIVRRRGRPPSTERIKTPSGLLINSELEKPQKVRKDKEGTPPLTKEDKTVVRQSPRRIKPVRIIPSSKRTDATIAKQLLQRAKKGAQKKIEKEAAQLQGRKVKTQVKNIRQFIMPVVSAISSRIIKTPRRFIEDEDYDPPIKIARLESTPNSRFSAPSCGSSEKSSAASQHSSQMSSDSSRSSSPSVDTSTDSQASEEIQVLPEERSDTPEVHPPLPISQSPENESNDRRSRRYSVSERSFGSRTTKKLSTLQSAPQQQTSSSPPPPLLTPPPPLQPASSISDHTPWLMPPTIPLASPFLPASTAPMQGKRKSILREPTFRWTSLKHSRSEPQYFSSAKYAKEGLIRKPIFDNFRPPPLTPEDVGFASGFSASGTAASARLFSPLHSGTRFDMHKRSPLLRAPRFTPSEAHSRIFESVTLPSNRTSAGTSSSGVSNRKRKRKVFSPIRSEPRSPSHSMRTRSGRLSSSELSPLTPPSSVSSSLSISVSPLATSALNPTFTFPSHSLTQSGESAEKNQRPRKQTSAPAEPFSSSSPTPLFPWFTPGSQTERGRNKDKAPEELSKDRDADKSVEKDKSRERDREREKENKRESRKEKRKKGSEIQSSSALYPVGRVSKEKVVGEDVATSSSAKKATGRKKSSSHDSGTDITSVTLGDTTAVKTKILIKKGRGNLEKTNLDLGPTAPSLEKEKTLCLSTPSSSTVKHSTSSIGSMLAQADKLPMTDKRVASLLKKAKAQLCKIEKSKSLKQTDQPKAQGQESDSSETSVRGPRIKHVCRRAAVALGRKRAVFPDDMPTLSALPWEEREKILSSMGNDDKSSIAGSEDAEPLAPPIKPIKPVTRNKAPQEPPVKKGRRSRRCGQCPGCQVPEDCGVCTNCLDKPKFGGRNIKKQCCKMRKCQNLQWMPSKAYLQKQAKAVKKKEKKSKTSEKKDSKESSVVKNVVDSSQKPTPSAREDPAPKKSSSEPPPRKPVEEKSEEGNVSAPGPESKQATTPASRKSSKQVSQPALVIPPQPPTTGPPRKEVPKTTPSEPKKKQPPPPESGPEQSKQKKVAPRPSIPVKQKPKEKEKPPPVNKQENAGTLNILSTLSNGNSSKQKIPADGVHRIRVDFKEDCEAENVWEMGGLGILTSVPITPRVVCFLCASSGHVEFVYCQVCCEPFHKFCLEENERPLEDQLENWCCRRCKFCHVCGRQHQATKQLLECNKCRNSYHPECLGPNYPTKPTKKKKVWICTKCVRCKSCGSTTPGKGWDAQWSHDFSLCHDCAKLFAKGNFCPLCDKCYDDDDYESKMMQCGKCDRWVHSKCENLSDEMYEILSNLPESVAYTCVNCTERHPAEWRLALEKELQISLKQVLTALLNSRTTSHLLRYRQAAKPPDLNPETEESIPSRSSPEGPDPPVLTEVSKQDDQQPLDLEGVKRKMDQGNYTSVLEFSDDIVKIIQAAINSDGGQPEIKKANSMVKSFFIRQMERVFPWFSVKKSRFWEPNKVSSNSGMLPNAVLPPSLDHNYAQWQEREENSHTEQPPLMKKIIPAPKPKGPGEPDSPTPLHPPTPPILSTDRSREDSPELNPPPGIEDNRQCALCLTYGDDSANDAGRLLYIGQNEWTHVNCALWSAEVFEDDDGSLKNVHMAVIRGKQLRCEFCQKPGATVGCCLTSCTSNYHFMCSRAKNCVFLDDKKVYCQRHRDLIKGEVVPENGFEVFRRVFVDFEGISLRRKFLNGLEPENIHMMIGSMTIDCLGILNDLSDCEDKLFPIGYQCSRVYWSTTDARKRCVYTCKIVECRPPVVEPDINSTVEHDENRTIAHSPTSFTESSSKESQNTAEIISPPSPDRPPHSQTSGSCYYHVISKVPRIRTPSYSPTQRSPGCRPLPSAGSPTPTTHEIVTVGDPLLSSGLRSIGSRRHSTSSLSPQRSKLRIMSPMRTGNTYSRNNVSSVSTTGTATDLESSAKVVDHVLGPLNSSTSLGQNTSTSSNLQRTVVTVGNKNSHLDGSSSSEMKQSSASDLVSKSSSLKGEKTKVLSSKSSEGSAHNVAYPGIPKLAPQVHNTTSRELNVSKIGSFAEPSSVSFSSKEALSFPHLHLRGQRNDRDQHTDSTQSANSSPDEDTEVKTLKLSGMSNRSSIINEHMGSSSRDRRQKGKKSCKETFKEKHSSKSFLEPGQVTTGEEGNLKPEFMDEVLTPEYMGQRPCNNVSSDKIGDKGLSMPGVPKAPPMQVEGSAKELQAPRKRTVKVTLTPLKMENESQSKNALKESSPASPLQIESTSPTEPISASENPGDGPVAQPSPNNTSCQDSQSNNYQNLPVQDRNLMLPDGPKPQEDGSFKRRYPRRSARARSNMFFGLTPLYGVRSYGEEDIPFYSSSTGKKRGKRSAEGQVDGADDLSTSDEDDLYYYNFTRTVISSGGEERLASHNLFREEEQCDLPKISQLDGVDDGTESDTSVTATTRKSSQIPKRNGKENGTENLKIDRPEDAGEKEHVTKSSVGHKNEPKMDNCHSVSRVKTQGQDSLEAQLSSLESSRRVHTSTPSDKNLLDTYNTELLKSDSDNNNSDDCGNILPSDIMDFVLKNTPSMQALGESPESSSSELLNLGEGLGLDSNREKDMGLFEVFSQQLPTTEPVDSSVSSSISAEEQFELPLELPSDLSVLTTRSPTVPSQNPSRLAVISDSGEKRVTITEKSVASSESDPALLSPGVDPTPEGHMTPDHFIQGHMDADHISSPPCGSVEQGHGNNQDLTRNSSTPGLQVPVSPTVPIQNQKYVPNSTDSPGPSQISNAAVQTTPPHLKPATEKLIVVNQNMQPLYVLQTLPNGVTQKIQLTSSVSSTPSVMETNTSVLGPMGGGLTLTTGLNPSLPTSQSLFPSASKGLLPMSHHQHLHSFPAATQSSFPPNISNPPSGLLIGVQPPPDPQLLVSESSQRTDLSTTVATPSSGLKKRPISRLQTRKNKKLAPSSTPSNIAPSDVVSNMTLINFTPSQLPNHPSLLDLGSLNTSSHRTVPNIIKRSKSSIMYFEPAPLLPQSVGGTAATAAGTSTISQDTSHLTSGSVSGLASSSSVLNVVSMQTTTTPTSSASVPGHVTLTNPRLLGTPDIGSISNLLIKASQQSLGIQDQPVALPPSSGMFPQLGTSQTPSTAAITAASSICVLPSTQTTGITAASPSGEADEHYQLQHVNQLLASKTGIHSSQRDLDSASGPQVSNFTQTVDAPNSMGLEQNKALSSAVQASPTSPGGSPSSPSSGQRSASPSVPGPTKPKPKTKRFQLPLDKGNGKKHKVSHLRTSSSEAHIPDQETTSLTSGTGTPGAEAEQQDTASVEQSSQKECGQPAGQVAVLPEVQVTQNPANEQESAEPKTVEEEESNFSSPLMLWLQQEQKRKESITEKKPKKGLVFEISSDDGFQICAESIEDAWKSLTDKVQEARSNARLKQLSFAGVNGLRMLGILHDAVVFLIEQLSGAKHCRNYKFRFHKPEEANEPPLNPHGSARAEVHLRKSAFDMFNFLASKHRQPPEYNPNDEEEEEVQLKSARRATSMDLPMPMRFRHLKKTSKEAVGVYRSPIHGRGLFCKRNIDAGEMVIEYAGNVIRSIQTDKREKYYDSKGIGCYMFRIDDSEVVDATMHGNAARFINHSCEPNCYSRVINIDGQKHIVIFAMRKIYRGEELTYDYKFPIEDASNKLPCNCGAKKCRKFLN

Target: T1, recombinant full length, His-tagged menin (human) (UniProt O00255)
T1 sequence: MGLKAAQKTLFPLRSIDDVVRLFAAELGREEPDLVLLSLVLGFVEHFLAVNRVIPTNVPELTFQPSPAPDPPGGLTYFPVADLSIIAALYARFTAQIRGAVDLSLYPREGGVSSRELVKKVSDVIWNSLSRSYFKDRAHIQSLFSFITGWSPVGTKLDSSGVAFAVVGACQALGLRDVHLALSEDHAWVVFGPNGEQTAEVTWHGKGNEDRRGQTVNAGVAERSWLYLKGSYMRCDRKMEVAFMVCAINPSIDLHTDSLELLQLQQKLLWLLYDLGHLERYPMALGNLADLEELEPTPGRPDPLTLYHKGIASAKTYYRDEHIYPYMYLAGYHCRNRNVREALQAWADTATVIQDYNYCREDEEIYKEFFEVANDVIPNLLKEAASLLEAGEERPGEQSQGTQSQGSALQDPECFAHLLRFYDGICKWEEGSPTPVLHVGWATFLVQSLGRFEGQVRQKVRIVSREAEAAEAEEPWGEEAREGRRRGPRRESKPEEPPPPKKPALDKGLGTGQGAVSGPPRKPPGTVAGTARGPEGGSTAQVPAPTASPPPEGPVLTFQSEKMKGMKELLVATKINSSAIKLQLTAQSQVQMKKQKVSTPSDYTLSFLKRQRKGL
Experiment: AlphaScreen or HTRF; TR-FRET competition assay: 2 nM His-menin, 50 nM biotinylated MLL1 peptide, 2 nM anti-6XHis-Tb cryptate and 50 nM Streptavidin XL-665 (Cisbio), 0.1 nM to 20 uM small-molecule test compounds; 50 mM Tris/HCl pH 7.5, 50 mM NaCl, 0.1% BSA, 1 mM DTT; 0.5-4 h at RT; vehicle control = full binding; both purified

Substance: synthetic biotinylated MLL1 a.a. 4-15 (from UniProt Q03164 4-15) (peptide)
- binding: binds
